PubChem BioAssay AID1671195 – Yale University – 2021
Assay: 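Knockdowns that increase or decrease uptake of fluorescent LDL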 (primary screen). Cell system: human Huh7 hepatoma cells. Knock-down reagent: siRNA pool against human genes, 18 nM. Timing: about 2 to 2.5 days of knockdown, then 8 h LDL uptake. Conditions: DiI-labelled LDL at 30 µg/ml for 8 h, in lipoprotein-deficient serum medium. Measurement: 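Per-cell DiI-LDL intensity by automated imaging; well means scaled to the plate median and given as a robust z-score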. Scale: robust z-score: higher = more LDL uptake after knockdown. Call rule: 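Active when two or more replicates show a robust z-score above 2 or below -2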.
This is one part, drawn at random, of about 22,000 reagents tested. About 1,510 of all reagents (6.9%) were called active. 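Active includes knockdowns raising or lowering LDL uptake; positive z-scores mean more uptake, negative mean less.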 The numbers tell different reagents against one gene apart. Reagent sequences are not shown.

gene	pool no.	robust z-score, replicate 1	robust z-score, replicate 2	robust z-score, replicate 3	Call
ATXN7L2	1	-1.4	-1.41	-2.13	inactive
LOC442050 (retired record)	1	0.308	-0.0301	-0.288	inactive
FPR3	1	-1.78	-0.741	-1.35	inactive
NPRL2	1	-1.35	-1.72	-0.806	inactive
PDE9A	1	-0.854	-0.989	-1.06	inactive
LOC340549 (retired record)	1	1.45	1.31	1.63	inactive
USF1	1	0.0309	0.0621	-0.159	inactive
VWA3B	1	-0.467	-0.241	-0.623	inactive
CPA1	1	1.03	0.791	0.901	inactive
SNX4	1	-0.831	-0.706	-0.966	inactive
NEURL2	1	-0.378	0.291	-0.0323	inactive
LOC441329 (retired record)	1	-1.11	-1.92	-1.66	inactive
CCDC191	1	0.521	-0.529	2.76	inactive
LEPR	1	-0.988	-0.742	-0.586	inactive
DRC8	1	0.131	-0.243	0.054	inactive
PCDHGA6	1	0.354	0.133	-0.403	inactive
TMEM235	1	2.26	2.13	1.12	active
LOC440534 (retired record)	1	0.451	-0.286	0.102	inactive
PFKFB2	1	-0.0545	-0.0254	-0.397	inactive
TIAL1	1	0.831	0.809	0.756	inactive
WDR44	1	-1.05	-1.98	-1.7	inactive
SIGLEC11	1	-0.26	0.0722	-0.0326	inactive
POLR2L	1	-0.903	-0.751	-0.441	inactive
NUDT8	1	0.472	1.04	0.718	inactive
NUTM1	1	1.14	1.33	0.954	inactive
ATCAY	1	0.996	2.73	0.792	inactive
PIK3AP1	1	-0.0358	1.26	1.29	inactive
PXDN	1	0.366	0.904	0.271	inactive
NOVA1	1	2.43	1.21	3.44	active
MIER2	1	0.945	-0.901	0.0258	inactive
STEAP3	1	-0.703	1.75	-0.013	inactive
KLRC1	1	0.552	0.28	1.27	inactive
IPO13	1	0.577	0.0322	0.693	inactive
SERTM2	1	1.44	1.49	2	inactive
OPRD1	1	-0.537	-0.16	-0.15	inactive
RBBP4	1	-0.588	-0.14	-0.954	inactive
CLEC11A	1	1.27	0.962	2.04	inactive
SNAP47	1	-0.662	0.604	0.963	inactive
FAM53C	1	0.166	0.803	-0.209	inactive
ZMAT2	1	-0.294	-0.609	-0.752	inactive
OLFM1	1	-2.15	-0.657	-1.44	inactive
VRK2	1	0.431	0.148	0.66	inactive
LINC01144	1	-0.138	-0.03	-0.101	inactive
LOC388624 (retired record)	1	1.48	1.87	1.72	inactive
ANP32CP	1	-0.115	0.158	-0.362	inactive
SSR4	1	3.11	3.48	4.75	active
EXOC3	1	-1.46	-2.34	-1.36	inactive
SNRPE	1	-0.596	-0.332	-1.49	inactive
ELAVL4	1	-0.456	-0.637	-0.483	inactive
MYBPC2	1	-1.28	-0.595	-1.4	inactive
RAB1A	1	2.18	-0.225	0.161	inactive
LYSET	1	0.0224	-1.89	-0.409	inactive
TMEM132B	1	-0.7	-0.303	0.0971	inactive
TMEM132B	2	0.237	-1.22	-0.578	inactive
PPP6R2	1	0.927	-0.36	-0.878	inactive
PPP1R3B	1	0.728	0.489	0.305	inactive
NRM	1	-0.268	1.25	-0.949	inactive
MOB3A	1	-0.448	-1.1	-1.45	inactive
EGR1	1	-0.539	-0.256	-1.48	inactive
GRIPAP1	1	-1.35	-0.198	-0.089	inactive
CDHR4	1	-0.32	-0.663	-0.18	inactive
DUOXA1	1	0.652	0.389	0.357	inactive
TMEM115	1	-0.185	-0.709	-0.876	inactive
VAMP3	1	1.87	-0.594	0.403	inactive
C1GALT1C1	1	0.414	0.657	0.0181	inactive
ABCB5	1	-0.507	0.244	-0.647	inactive
BIRC8	1	1.11	0.953	0.487	inactive
FBXO44	1	1.16	1.03	1.33	inactive

Laid out differently: results already given
CPA1
- robust z-score, replicate 1: 1.03
- robust z-score, replicate 2: 0.791
- robust z-score, replicate 3: 0.901
- Call: inactive

SNX4
- robust z-score, replicate 1: -0.831
- robust z-score, replicate 2: -0.706
- robust z-score, replicate 3: -0.966
- Call: inactive

NEURL2
- robust z-score, replicate 1: -0.378
- robust z-score, replicate 2: 0.291
- robust z-score, replicate 3: -0.0323
- Call: inactive

LOC441329 (retired record)
- robust z-score, replicate 1: -1.11
- robust z-score, replicate 2: -1.92
- robust z-score, replicate 3: -1.66
- Call: inactive
